# PubChem BioAssay AID2685 (National Center for Advancing Translational Sciences (NCATS), 2010)
# This is one part of the list. These are further read-outs of the screen, such as a control signal, another cell line or another target. No call is given for them. The list favours compounds with an active or inconclusive main result. Potencies come from curve fits of mixed quality, noted in brackets.
# Assay: qHTS Assay for Lipid Storage Modulators in Drosophila S3 Cells;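 on cell number change: cells counted by Cell Tracker Red CMTPX staining in the red channel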
# Settings: BODIPY lipid droplet fluorescence, 18-24 h; for cell number change: measured here: cell count max response, cells fed with added oleic acid
# Summary of the method: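 Drosophila S3 cells loaded with oleic acid (400 uM, as added) and compounds at several concentrations; lipid droplets imaged by 488-nm laser-scanning cytometry, 500–530 nm intensity and object ratio to cell channel. Percent activity normalized to 20 uM Triacsin C.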
# [1] = measured here: cell number channel AC50, cells fed with added oleic acid
# [2] = measured here: lipid fluorescence (Fed channel) AC50, cells fed with added oleic acid
SMILES,cell number change [%],AC50 [1],AC50 [2]
O=C(COC(=O)CC1CCCC1)Nc1cccc(F)c1,-34.1,"29.1 µM [falling, partial curve, poor fit]",
CCOC(=O)C1CCCN(S(=O)(=O)c2cc(C(=O)OC)n(C)c2)C1 (stereo unspecified),5.39,,
COC(=O)c1ccccc1NC(=O)CSc1nc(N)cc(N)n1,31.8,"32.6 µM [rising, single point]","13 µM [rising, partial curve]"
O=C(c1cccc(S(=O)(=O)N2CCOCC2)c1)N1CCC(Cc2ccccc2)CC1,-38.4,"29.1 µM [falling, single point]","29.1 µM [falling, single point]"
COc1ccc(CCNC(=O)C2CCN(S(=O)(=O)c3ccc(C)cc3)CC2)cc1OC,1.65,,
COc1ccc(CN(C)C(=O)Cc2ccc(OC)c(S(=O)(=O)N3CCOCC3)c2)cc1,-21.8,,"0.0411 µM [falling, full curve, poor fit]"
Cc1cc(C)c(NC(=O)CNC(=O)CN(C)Cc2ccc(Br)s2)c(C)c1,-0.306,,"29.1 µM [rising, single point]"
COc1ccc2c(Cl)c(C(=O)N/N=C3\CCCC(=O)C3)sc2c1,,"1.03 µM [falling, single point]","14.6 µM [falling, partial curve]"
CCN1C/C(=C/c2cccc([N+](=O)[O-])c2)C(=O)/C(=C/c2cccc([N+](=O)[O-])c2)C1,-25.1,,"5.17 µM [falling, full curve]"
Cc1ccc(-c2nc3ccccc3s2)cc1S(=O)(=O)N1CCOCC1,,"0.517 µM [rising, partial curve, poor fit]","29.1 µM [rising, single point]"
Cc1ccc(NC(=O)C(C)c2ccc(-c3ccccc3)c(F)c2)cc1 (stereo unspecified),-15.5,,
O=C(CSc1nnc(-c2ccco2)o1)c1ccccc1,-15.9,,
Cc1cc(=O)[nH]c(SCc2nc3ccccc3s2)n1,-34.3,"14.6 µM [falling, single point]","29.1 µM [falling, single point]"
CC(c1ccccc1)N(NC(=O)C(O)(c1ccccc1)c1ccccc1)C(=O)c1ccccc1 (stereo unspecified),-51.9,"11.6 µM [falling, partial curve, poor fit]","11.6 µM [falling, partial curve, poor fit]"
COc1ccc(/C=N\NC(=O)COc2ccc(C(C)(C)C)cc2)cc1Cn1nc(C)cc1C,-60.7,"23.1 µM [falling, single point]","29.1 µM [falling, single point]"

# Quoted from the entries so far (2 entries):
SMILES,cell number change [%],AC50 [1],AC50 [2]
COc1ccc2c(Cl)c(C(=O)N/N=C3\CCCC(=O)C3)sc2c1,,"1.03 µM [falling, single point]","14.6 µM [falling, partial curve]"
CCN1C/C(=C/c2cccc([N+](=O)[O-])c2)C(=O)/C(=C/c2cccc([N+](=O)[O-])c2)C1,-25.1,,"5.17 µM [falling, full curve]"
